From publication PMC3390794
No constants are given. Whether binding was seen depends on the method and setting. In cells and extracts the contact can be indirect. Some entries that bind do so weakly or less than the wild type. For part of these data: Where a sequence is shown, tags or fusion partners need not be part of it.

Chains of the proteins cited; added tags and fusions are not shown.
UniProt O15105: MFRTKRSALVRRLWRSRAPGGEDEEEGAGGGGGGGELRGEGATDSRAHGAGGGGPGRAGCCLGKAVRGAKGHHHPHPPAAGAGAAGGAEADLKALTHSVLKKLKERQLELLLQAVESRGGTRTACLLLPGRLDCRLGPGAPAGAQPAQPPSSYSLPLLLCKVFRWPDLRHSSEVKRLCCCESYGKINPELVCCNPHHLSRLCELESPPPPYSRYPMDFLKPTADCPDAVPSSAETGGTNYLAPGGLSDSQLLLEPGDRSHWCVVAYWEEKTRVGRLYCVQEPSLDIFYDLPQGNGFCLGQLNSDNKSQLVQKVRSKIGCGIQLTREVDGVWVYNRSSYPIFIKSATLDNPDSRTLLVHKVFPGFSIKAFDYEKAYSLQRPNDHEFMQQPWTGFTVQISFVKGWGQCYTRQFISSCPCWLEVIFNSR
UniProt P51784: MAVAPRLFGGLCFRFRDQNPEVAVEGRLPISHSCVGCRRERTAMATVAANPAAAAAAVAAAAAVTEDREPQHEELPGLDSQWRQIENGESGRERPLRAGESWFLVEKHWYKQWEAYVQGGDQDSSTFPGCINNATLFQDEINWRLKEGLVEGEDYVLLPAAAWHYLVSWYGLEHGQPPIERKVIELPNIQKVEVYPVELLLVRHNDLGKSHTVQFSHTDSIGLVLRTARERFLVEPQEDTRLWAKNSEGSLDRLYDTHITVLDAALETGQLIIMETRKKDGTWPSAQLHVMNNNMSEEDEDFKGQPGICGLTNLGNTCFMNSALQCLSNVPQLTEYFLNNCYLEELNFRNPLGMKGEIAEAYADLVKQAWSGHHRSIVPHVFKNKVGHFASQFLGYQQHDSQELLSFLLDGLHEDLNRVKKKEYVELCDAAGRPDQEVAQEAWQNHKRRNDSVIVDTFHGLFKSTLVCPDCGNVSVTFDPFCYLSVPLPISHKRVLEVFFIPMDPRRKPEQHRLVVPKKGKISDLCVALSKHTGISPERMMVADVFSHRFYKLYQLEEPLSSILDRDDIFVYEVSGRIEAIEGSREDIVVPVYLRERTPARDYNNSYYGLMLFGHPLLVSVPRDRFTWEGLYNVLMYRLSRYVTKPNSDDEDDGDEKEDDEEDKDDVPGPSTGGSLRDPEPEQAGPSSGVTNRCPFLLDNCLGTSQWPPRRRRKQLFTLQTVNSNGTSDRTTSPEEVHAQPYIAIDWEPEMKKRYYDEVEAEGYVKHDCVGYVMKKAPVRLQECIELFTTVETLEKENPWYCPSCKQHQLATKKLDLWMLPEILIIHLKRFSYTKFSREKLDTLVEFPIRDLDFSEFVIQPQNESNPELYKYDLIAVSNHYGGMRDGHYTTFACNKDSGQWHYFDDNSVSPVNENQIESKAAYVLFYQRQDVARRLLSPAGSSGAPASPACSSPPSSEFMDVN

How the values were obtained:
FLAG-ALK5 (human) = target: T1, FLAG-ALK5 (human) (UniProt P36897); experiment: co-IP; HEK293 transiently co-transfected with FLAG-tagged bait and HA-USP11 (with or without HA-SMAD7 for ALK5); FLAG IPs (2 h, 4°C, washes with 0.5 M NaCl) immunoblotted with HA antibody
T1 sequence: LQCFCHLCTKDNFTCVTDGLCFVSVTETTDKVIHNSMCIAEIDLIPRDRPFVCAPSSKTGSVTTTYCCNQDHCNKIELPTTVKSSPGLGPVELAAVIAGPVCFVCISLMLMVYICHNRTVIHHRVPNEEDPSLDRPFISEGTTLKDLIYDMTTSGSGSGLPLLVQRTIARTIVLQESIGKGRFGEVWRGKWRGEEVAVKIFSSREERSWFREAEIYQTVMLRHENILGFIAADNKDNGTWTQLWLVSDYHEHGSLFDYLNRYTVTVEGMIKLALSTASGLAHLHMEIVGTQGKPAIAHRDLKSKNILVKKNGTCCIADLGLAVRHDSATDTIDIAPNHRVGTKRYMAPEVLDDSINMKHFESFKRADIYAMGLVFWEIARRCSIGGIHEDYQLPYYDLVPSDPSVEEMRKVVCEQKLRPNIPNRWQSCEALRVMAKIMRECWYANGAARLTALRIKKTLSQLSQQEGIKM

FLAG–SMAD7 (human) [1] = target: FLAG–SMAD7 (human) (UniProt O15105); experiment: as above
3XFLAG-ALK5 (human) = target: T2, 3XFLAG-ALK5 (human) (UniProt P36897); experiment: co-IP; HEK293 transiently transfected with FLAG-tagged bait only (with or without TGFβ 50 pM 45 min; with or without HA-SMAD7 for ALK5); FLAG IPs immunoblotted for endogenous USP11
T2 sequence: T1 sequence

FLAG–SMAD7 (human) [2] = target: FLAG–SMAD7 (human) (UniProt O15105); experiment: as above
[3] = target: T3, endogenous ALK5 (human (endogenous in HEK293)) (UniProt P36897); experiment: co-IP; endogenous IP: 5 mg HEK293 lysate (vehicle or TGFβ 50 pM 45 min), SMAD7 or ALK5 antibody covalently bound to protein G Dynabeads, 30 min at room temperature, PBS washes; blot for endogenous USP11; pre-immune IgG as control
T3 sequence: T1 sequence

[4] = target: endogenous SMAD7 (human (endogenous in HEK293 and HaCaT)) (UniProt O15105); experiment: as above

binding (FLAG-ALK5 (human))	binding (FLAG–SMAD7 (human) [1])	binding (3XFLAG-ALK5 (human))	binding (FLAG–SMAD7 (human) [2])	binding [3]	binding [4]	Substance
binds	binds	–	–	–	–	HA-USP11 (from UniProt P51784 1-963) (enzyme)
–	–	binds	binds	binds	binds	endogenous USP11 (from UniProt P51784 1-963) (enzyme)
